These are yes or no findings as the source states them, for the method shown. Binding can be weak; no strength is given. Tags and fused reporters may be left off the sequences shown.
Target: A. thaliana TFII (Transcription Factor II) (LexA DNA-binding domain fusion) (A. thaliana)
Experiment: two-hybrid; Matchmaker LexA Two-Hybrid System (Clontech); bait fused to the LexA DNA-binding domain, prey fused to the B42 activation domain

binding: binds
B1: Bin4 (B42 activation domain fusion) (protein, UniProt Q9FLU1 1-454)
chain: MSSSSREGSPDWLRSYEAPMTTSLLSLSSSDDDSPYRESEVISSLPLPDDDGDDIVVLETESVELLTRKNSETKVVTKQVSIEQVFSRKKKADASLNLEDSCAGKENGNNVDCEKLSSKHKDAQGGADSVWLVSSDSEPSSPIKQEVTVSTEKDADFVLEATEEEPAVKTVRKEKSPKTKSKSSRKTPKEGNSAQEILKTEDKDTDTTIAEQVTPEKSPKTKSKSSRKTPKEENCAQEILKTEDKDKDTDTDTIIAEEVTTDQKIKPSSGSSSRLPLVLSEKVNRTKVLVECEGDSIDLSGDMGAVGRVVVSDTTGDMYLDLKGTIYKSTIIPSRTFCVVNVGQTEAKIEAIMNDFIQLIPQSNVYEAETMVEGTLEGFTFESDDESNKNAKTAVKPADQSVGTEEETNTKAKPKAKAKGETVIGKKRGRPSKEKQPPAKKARNSAPKKPKAKK
